{
  "source": "PubChem BioAssay AID651640",
  "about": "(Broad Institute, 2012)",
  "note": "“And” between values parts separate entries of the source, which are not always exact repeats. Equal entries are not always repeated. Among all 350,000 compounds or so, about 6,000 (1.7%) were called active. This list was built around the results that the source calls inconclusive (neither active nor inactive); the mix of calls is not that of the screen. No stated cut-off is given here; in the data, active means CPE inhibition above about 20% (passing the limit was not always enough); inconclusive means no clear call, values can overlap the other calls; tested in BHK-21 cells.",
  "data": [
    {"assay": "protection of cells from dengue 2 killing – plate reader, single concentration, primary screen (AID 651640);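 further: 0% = median of neutral control wells and 100% = median of positive control wells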", "conditions": "DENV2-infected cells, cytopathic effect rescue, at 9.99 µM, stronger effect = higher value", "values": [
      {"molecule": "CCOC(=O)C1=CCN(S(=O)(=O)c2cccc(Cl)c2)C1c1ccc(C)cc1", "note": "(configuration not stated)", "CPE inhibition": "inconclusive: 33.3%"},
      {"molecule": "CC(C)CC#Cc1ccc2c(c1)O[C@@H](CN(C)C(=O)c1cnccn1)[C@@H](C)CN([C@@H](C)CO)S2(=O)=O", "CPE inhibition": "active: 36.4%"},
      {"molecule": "COc1ccc(/C=C2\\SC(=S)N(CCCC(=O)Nc3cccc(C(=O)O)c3)C2=O)cc1OC", "CPE inhibition": "inconclusive: 28.6%"},
      {"molecule": "COc1cccc(C#Cc2ccc3c(c2)O[C@@H](CN(C)C(=O)c2ccccn2)[C@@H](C)CN([C@H](C)CO)S3(=O)=O)c1", "CPE inhibition": "inconclusive: 16.5%"},
      {"molecule": "NCCCC[C@H]1CNC(=S)N1CCc1cccc(F)c1", "CPE inhibition": "inconclusive: 42.2%"},
      {"molecule": "C[C@H]1CN([C@@H](C)CO)C(=O)c2cccc(NC(=O)Nc3ccc(F)cc3)c2O[C@H]1CN(C)C", "CPE inhibition": "inconclusive: 20.4%"},
      {"molecule": "COc1ccc(S(=O)(=O)N(C)C[C@H]2Oc3ccc(NS(=O)(=O)c4cccs4)cc3CC(=O)N([C@@H](C)CO)C[C@@H]2C)cc1", "CPE inhibition": "active: 26.3%"},
      {"molecule": "Cc1ccc(C2CC(c3cccs3)=NN2C(=O)CSc2nc(=O)n3cc(C)ccc3n2)cc1", "note": "(configuration not stated)", "CPE inhibition": "inconclusive: 20.3%"},
      {"molecule": "O=C(CC[C@H]1O[C@@H](n2cnc3c(NC(=O)c4ccccc4)ncnc32)[C@H](O)[C@@H]1O)N[C@@H](CO)c1ccccc1", "CPE inhibition": "inconclusive: 29.5%"},
      {"molecule": "CCOC(=O)Cc1csc(NC(=O)c2ccc(N3CCOCC3)cc2[N+](=O)[O-])n1", "CPE inhibition": "inactive: 11.6%"},
      {"molecule": "CCN1C(=O)[C@H]2[C@@H](c3ccc(OC)cc3)N3C(=O)CN(CCOC)C(=O)[C@@]3(C)[C@H]2C1=O", "CPE inhibition": "active: 98.4%"},
      {"molecule": "Cc1ncsc1CCOC(=O)c1ccccc1", "CPE inhibition": "inconclusive: 56.2%"},
      {"molecule": "O=C(c1cccnc1)N1C[C@H]2[C@@H](c3ccccc31)[C@@H](CO)N2C(=O)C1CCCCC1", "CPE inhibition": "inactive: 7.72%"},
      {"molecule": "CCS(=O)(=O)N1CC2(CN(Cc3cc(F)ccc3F)[C@H](CO)c3c2c2ccc(OC)cc2n3C)C1", "CPE inhibition": "inactive: -5%"},
      {"molecule": "O=C(COC(=O)c1nc(Cl)ccc1Cl)NCc1cccs1", "CPE inhibition": "inconclusive: 43.3%"},
      {"molecule": "Cc1ccc(CN2C(=O)CCC2(C)c2nnnn2Cc2ccccc2)cc1", "note": "(configuration not stated)", "CPE inhibition": "inconclusive: 24.2%"},
      {"molecule": "CCc1ccc(C(=O)COC(=O)C(CCSC)NC(=O)c2ccccc2)cc1", "note": "(configuration not stated)", "CPE inhibition": "inactive: -0.244%"},
      {"molecule": "C[C@H](CO)N1C[C@H](C)[C@H](CN(C)Cc2ccccc2)Oc2ccc(NC(=O)Nc3ccc(C(F)(F)F)cc3)cc2C1=O", "CPE inhibition": "inactive: -1.72%"},
      {"molecule": "O=C(N[C@H]1CC[C@@H](CCNS(=O)(=O)c2cccc(Cl)c2)O[C@H]1CO)c1ccc(F)cc1", "CPE inhibition": "inconclusive: 28.3%"},
      {"molecule": "C[C@H]1CN([C@@H](C)CO)C(=O)c2cccc(NC(=O)C3CCCCC3)c2O[C@@H]1CN(C)Cc1ccc(C(=O)Nc2ccccc2N)cc1", "CPE inhibition": "active: 80.1%"},
      {"molecule": "CC(=C1C(=O)c2ccccc2C1=O)N1CCN(c2ccc(F)cc2)CC1", "CPE inhibition": "inconclusive: 34.6%"},
      {"molecule": "O=C([C@H]1[C@H](CO)[C@H]2Cn3c(ccc(-c4cccc(F)c4)c3=O)[C@H]2N1Cc1cocn1)N1CCCCC1", "CPE inhibition": "inactive: -5.98%"},
      {"molecule": "Cc1ccc(S(=O)(=O)N2C[C@H]3[C@H]4C(=O)N(C)C(=O)[C@H]4CC(=O)[C@H]3[C@@H]2c2ccccc2F)cc1", "CPE inhibition": "inactive: -0.81%"},
      {"molecule": "Cc1ccc(OCCNC(=O)CNC(=O)c2ccc(Cl)c([N+](=O)[O-])c2)cc1", "CPE inhibition": "inconclusive: 35.9%"},
      {"molecule": "Cc1cccc(NC(=O)c2ccc3c(=O)n4c(nc3c2)CCCCC4)n1", "CPE inhibition": "inconclusive: 59.8%"},
      {"molecule": "COc1ccc(OC)c(-c2cc(C(=O)NC3CCCC3)c3ccccc3n2)c1", "CPE inhibition": "active: 36.1%"},
      {"molecule": "COc1ccc2c3c([nH]c2c1)[C@@H](CO)N(C(=O)c1ccncc1)CC31CCN(C(=O)C2CCC2)CC1", "CPE inhibition": "inactive: -8.3%"},
      {"molecule": "Cn1c(Cc2ccc(Cl)cc2)nnc1SCC(=O)NC1CC1", "CPE inhibition": "inconclusive: 24.3%"},
      {"molecule": "O=C(O)c1nnsc1-c1csnn1", "CPE inhibition": "inconclusive: 45.8%"},
      {"molecule": "C[C@H](O)C#Cc1ccc([C@@H]2[C@H]3CN(C(=O)c4cccc(F)c4)CCCCN3[C@H]2CO)cc1", "CPE inhibition": "inactive: -1.19%"},
      {"molecule": "CS(=O)(=O)Nc1ccc2c(c1)[C@H]1C[C@H](CC(=O)NCC(F)(F)F)O[C@H](CO)[C@H]1O2", "CPE inhibition": "inactive: 0.994%"},
      {"molecule": "Cc1c(OCC(=O)N2CCC(C(=O)O)CC2)ccc2c1oc(=O)c1ccccc12", "CPE inhibition": "inconclusive: 74.6%"},
      {"molecule": "C[C@@H]1CCCCO[C@@H](CN(C)Cc2ccc(Cl)c(Cl)c2)[C@H](C)CN([C@H](C)CO)C(=O)c2cc(NC(=O)Nc3cccc4ccccc34)ccc2O1", "CPE inhibition": "inactive: -2.18%"},
      {"molecule": "CCCCC[C@H]1CN(CCc2ccccc2)C(=O)[C@@H]1CC(=O)NCc1ccc(OC)cc1", "CPE inhibition": "active: 24%"},
      {"molecule": "CCC(=O)N1CCC2(CC1)Oc1ccc(Cl)cc1C(=O)C21CC(c2ccc(Cl)cc2)=NO1", "note": "(configuration not stated)", "CPE inhibition": "active: 89.8%"},
      {"molecule": "Cc1ccc(S(=O)(=O)NCC(c2cccnc2)N2CCN(Cc3ccccc3)CC2)cc1", "note": "(configuration not stated)", "CPE inhibition": "inconclusive: 25.2%"},
      {"molecule": "CCCCN1CC(=O)N2[C@H]3c4cc(Cl)ccc4OC[C@@H]3[C@H](c3ccccc3)[C@]2(C)C1=O", "CPE inhibition": "inconclusive: 43.1%"},
      {"molecule": "O=C(c1ccccc1)c1ccc(-c2ccc(O)cc2)cc1", "CPE inhibition": "inactive: 1.01%"},
      {"molecule": "CN(C)Cc1cn(CC[C@@H]2CC[C@@H](NS(=O)(=O)c3ccc(-c4ccccc4)cc3)[C@H](CO)O2)nn1", "CPE inhibition": "inconclusive: 30.4%"},
      {"molecule": "CC(=O)Nc1ccc(CNc2ncnc3ccc(-c4c(C)noc4C)cc23)cc1", "CPE inhibition": "inconclusive: 21.9%"},
      {"molecule": "COc1cc2c(C(=O)N(C)c3ccc(F)cc3)cn(C)c(=O)c2cc1OC", "CPE inhibition": "inconclusive: 27.1%"},
      {"molecule": "C=CCOc1c(Cl)cc(Cl)cc1S(=O)(=O)NCCO", "CPE inhibition": "active: 76.7%"},
      {"molecule": "O=C(Cc1ccccn1)N1CC2(C1)[C@@H](c1ccccc1)[C@H](CO)N2C(=O)c1ccncc1", "CPE inhibition": "inactive: -2.47%"},
      {"molecule": "C[C@@H]1CCCCO[C@@H](CN(C)C(=O)NC2CCCCC2)[C@@H](C)CN([C@@H](C)CO)C(=O)c2cc(NC(=O)Nc3ccccc3)ccc2O1", "CPE inhibition": "active: 44.9%"},
      {"molecule": "COc1ccc(C(=O)/C=C/Nc2cc(C)ccn2)cc1", "CPE inhibition": "inconclusive: 29.1%"},
      {"molecule": "O=c1c(-c2ccc(O)cc2)coc2cc(O)ccc12", "CPE inhibition": "inconclusive: 21.5%"},
      {"molecule": "CC(C)OC(=O)N(C)C[C@H]1OCc2cnnn2CCCC(=O)N([C@H](C)CO)C[C@@H]1C", "CPE inhibition": "active: 28.5% and inconclusive: 65.8%"},
      {"molecule": "Cc1nn(CC2CC2)c(=O)n1-c1ccc(Oc2ccccc2)cc1", "CPE inhibition": "inconclusive: 22.1%"},
      {"molecule": "C[C@@H]1CN([C@@H](C)CO)C(=O)c2cc(C#C[C@@H](C)O)cnc2O[C@@H]1CN(C)C(=O)c1ccc(F)cc1", "CPE inhibition": "inconclusive: 26%"},
      {"molecule": "CCN1CCN(C(=O)c2ccc(OC3CCN(CCc4ccccc4)CC3)cc2)[C@@H](C)C1=O", "CPE inhibition": "inconclusive: 26.1%"},
      {"molecule": "CC(=O)Nc1ccc(S(=O)(=O)N2CCC(N3CCCC3)CC2)cc1", "CPE inhibition": "inconclusive: 34.9%"},
      {"molecule": "C[C@@H]1CN([C@@H](C)CO)C(=O)c2cc(C#CCN(C)C)cnc2O[C@@H]1CN(C)Cc1ccccc1", "CPE inhibition": "inactive: 8.82%"},
      {"molecule": "Cc1ccc(S(=O)(=O)N(C)C[C@H]2Oc3ccc(NC(=O)Nc4ccc(C(F)(F)F)cc4)cc3C(=O)N([C@H](C)CO)C[C@@H]2C)cc1", "CPE inhibition": "active: 36.8%"},
      {"molecule": "C[C@H]1CN([C@@H](C)CO)C(=O)c2cc(-c3cccc(F)c3)cnc2O[C@@H]1CN(C)CC1CCOCC1", "CPE inhibition": "inactive: -2.75%"},
      {"molecule": "Cc1ccc(C(=O)NNC2=NC(C)(C)Cc3ccccc32)cc1", "CPE inhibition": "inconclusive: 30.5%"},
      {"molecule": "CC(C)(C)c1ccc(C(=O)OCC(=O)NC2CC2)cc1", "CPE inhibition": "inconclusive: 35.2%"},
      {"molecule": "O=C(N[C@@H]1C=C[C@H](CC(=O)N2CCOCC2)O[C@H]1CO)c1cccc(F)c1", "CPE inhibition": "inconclusive: 24.6%"},
      {"molecule": "CO[C@@H]1CN(C)C(=O)c2ccc(NC(=O)C3CCC3)cc2OC[C@H](C)N(Cc2nccs2)C[C@@H]1C", "CPE inhibition": "inactive: 5.5%"},
      {"molecule": "O=C(CN1C(=O)NC2(CCCc3ccccc32)C1=O)N1CCN(c2cccc(C(F)(F)F)c2)CC1", "note": "(configuration not stated)", "CPE inhibition": "inconclusive: 36.8%"},
      {"molecule": "C[C@@H]1CN([C@H](C)CO)C(=O)c2cc(NC(=O)CCCN(C)C)ccc2O[C@@H](C)CCCCO[C@@H]1CN(C)S(C)(=O)=O", "CPE inhibition": "inconclusive: 70.4%"},
      {"molecule": "O[C@H]1CN(CC2CCCCC2)[C@@H](c2ccc(Cl)cc2)C[C@@H]1n1cc(C2CC2)nn1", "CPE inhibition": "active: 45.3%"},
      {"molecule": "Cc1cccc2nc(CSc3nc4ccc([N+](=O)[O-])cc4[nH]3)cn12", "CPE inhibition": "inconclusive: 38.1%"},
      {"molecule": "CC(=O)C1=C(C)NC(=O)NC1c1ccc(Cl)cc1", "note": "(configuration not stated)", "CPE inhibition": "inconclusive: 40.7%"},
      {"molecule": "O=C(Nc1ccccc1)N1CCCCN2[C@H](CO)[C@H](c3ccc(Br)cc3)[C@@H]2C1", "CPE inhibition": "active: 28.1%"},
      {"molecule": "C(=C\\c1ccccc1)/CN1CCN(C(CCc2ccccc2)c2nnnn2-c2ccc3c(c2)OCCO3)CC1", "note": "(configuration not stated)", "CPE inhibition": "inconclusive: 32.4%"},
      {"molecule": "O=C(O)CCCC(=O)Nc1ccccc1C(=O)N1CCOCC1", "CPE inhibition": "inactive: -5.6%"},
      {"molecule": "Cc1cc(F)ccc1S(=O)(=O)Nc1ncnc2scc(-c3ccc(F)cc3)c12", "CPE inhibition": "active: 46.8%"},
      {"molecule": "C[C@H](CO)N1C[C@H](C)[C@H](CN(C)S(=O)(=O)c2cn(C)cn2)Oc2ccc(NS(=O)(=O)c3cccs3)cc2CC1=O", "CPE inhibition": "inconclusive: 29.3%"},
      {"molecule": "O=C(c1ccccc1)N1CCN(C2CC(=O)N(CCc3ccccc3)C2=O)CC1", "note": "(configuration not stated)", "CPE inhibition": "inconclusive: 21.4%"},
      {"molecule": "Cc1ccc(S(=O)(=O)NCC[C@H]2CC[C@@H](NC(=O)c3cccc(F)c3)[C@H](CO)O2)cc1", "CPE inhibition": "inconclusive: 53.7%"},
      {"molecule": "O=C(NC1CCC1)[C@H]1[C@H](CO)[C@H]2Cn3c(cccc3=O)[C@@H]1N2CC1CCCC1", "CPE inhibition": "active: 36%"},
      {"molecule": "OC[C@@H]1Nc2ccc(-c3ccccc3)cc2[C@H]2[C@@H]1CCN2Cc1ccc(F)cc1", "CPE inhibition": "active: 48.5%"}
    ]}
  ]
}
